# Results from one PubChem assay

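Luminescence from an EWS-FLI1 target-promoter (NR0B1) reporter, set against a CMV-promoter reporter, two days after silencing single genes in TC32 Ewing sarcoma cells. Each siRNA was applied at 20 nM. A z-score of the log NR0B1-over-CMV signal, less the median of siRNAs with the same seed; more negative means a stronger specific loss of the NR0B1 reporter.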

This is part of the screen; most of the strongest results are not listed here. Sequences are the guide (antisense) strand, without overhang.

- AAUGGUGUUCCUAUCACUG against STK4 | seed-corrected z-score 0.3641
- AGAGUUAUUUUCAUCCUCC against CLSPN | seed-corrected z-score -1.177
- UUAGAGAUGUACACGGUGC against DISP3 | seed-corrected z-score 0.3028
- UGAGGUGAUCCACCAAAGC against BLOC1S1 | seed-corrected z-score -1.795
- UCCGUAAGCACAGUGAAGG against PDE1C | seed-corrected z-score -0.3897
- AUAAGGACUAGUUCUACAG against PRKRIR | seed-corrected z-score 1.108
- UUUGUUGUUCGUAAGUUUU against TBR1 | seed-corrected z-score -0.2409
- UCUGCGAGUAAGAAGUCCG against ATMIN | seed-corrected z-score -1.321
- UUGCUUAACUUUCUCAGGC against ZBTB44 | seed-corrected z-score 0.5892
- UAGGAUUCUGAUAUCGACG against PWWP2A | seed-corrected z-score 1.074
- UAGGCUUCCAUCUCAAAGG against ACY3 | seed-corrected z-score 0.2206
- AUAGAUUAGACUGUCCACC against TBC1D19 | seed-corrected z-score 0.081
- UUCAUUAUCUCUUCUUAGC against MLKL | seed-corrected z-score -0.6906
- UCCAUAAUCAUACUCAACA against DEFB110 | seed-corrected z-score 0.8031
- UAAUGAACCAUACAAUAUU against COX20 | seed-corrected z-score 0.4711
- UUUGAUGACGAUUCGAAGG against CUZD1 | seed-corrected z-score -0.7438
- UUGGUAUUCCUCAUGAUGC against LHFPL1 | seed-corrected z-score 0.7169
- AUCAAUUGCAUCUUGAUCC against TRHDE | seed-corrected z-score 1.025
- UUUCUCAUAGUAAUUGCCC against HIST1H2APS6 | seed-corrected z-score -0.2286
- UUAUGAUGUGCAAAGGCCG against LOC729056 | seed-corrected z-score -0.3478
- UUUGAAGGCAUUGUUCACG against ACOT11 | seed-corrected z-score 0.1588
- AUGCGUCCAAAGGCCUUGC against WNT6 | seed-corrected z-score -0.8093
- UUUCUUAUAGUAGUCAAUG against FGFR4 | seed-corrected z-score 0.05913
- UCACUUUGCUCCUCACUGC against VSIG10 | seed-corrected z-score -0.3973
- UACACUAAGAUGAUGAAGC against IL2RB | seed-corrected z-score -0.5481
- UGGAUAGUAACUCUCGAUC against RC3H1 | seed-corrected z-score -0.3455
- UUAGUUGUGCUUCAAGUUU against PFDN6 | seed-corrected z-score -0.5436
- UUUGGAAUCCUGUCGACCG against ASAP3 | seed-corrected z-score 1.045
- UUAGGACAAACGGUCAUGG against LL22NC03-63E9.3 | seed-corrected z-score 0.6708
- UAUCGUAGUAGGGAGAUCC against RND1 | seed-corrected z-score -1.02

Repeated from the top, 4 entries:

* AAUGGUGUUCCUAUCACUG against STK4 : seed-corrected z-score 0.3641
* AGAGUUAUUUUCAUCCUCC against CLSPN : seed-corrected z-score -1.177
* UUAGAGAUGUACACGGUGC against DISP3 : seed-corrected z-score 0.3028
* UGAGGUGAUCCACCAAAGC against BLOC1S1 : seed-corrected z-score -1.795

Source: PubChem BioAssay AID1159506 (NCATS, 2015).